Assay results reported in publication PMC2702278.
No constants are given. Whether binding was seen depends on the method and setting. Binding seen in cells or lysates may run through a third protein. A yes stands for co-enrichment or nearness to the bait. Other partners may have been found.

Protein sequences, listed by entry. Tags and fused reporters are not part of them. Lines headed by an entry give the natural chain unless they say otherwise; changes in a name come on top.
UniProt Q96B97: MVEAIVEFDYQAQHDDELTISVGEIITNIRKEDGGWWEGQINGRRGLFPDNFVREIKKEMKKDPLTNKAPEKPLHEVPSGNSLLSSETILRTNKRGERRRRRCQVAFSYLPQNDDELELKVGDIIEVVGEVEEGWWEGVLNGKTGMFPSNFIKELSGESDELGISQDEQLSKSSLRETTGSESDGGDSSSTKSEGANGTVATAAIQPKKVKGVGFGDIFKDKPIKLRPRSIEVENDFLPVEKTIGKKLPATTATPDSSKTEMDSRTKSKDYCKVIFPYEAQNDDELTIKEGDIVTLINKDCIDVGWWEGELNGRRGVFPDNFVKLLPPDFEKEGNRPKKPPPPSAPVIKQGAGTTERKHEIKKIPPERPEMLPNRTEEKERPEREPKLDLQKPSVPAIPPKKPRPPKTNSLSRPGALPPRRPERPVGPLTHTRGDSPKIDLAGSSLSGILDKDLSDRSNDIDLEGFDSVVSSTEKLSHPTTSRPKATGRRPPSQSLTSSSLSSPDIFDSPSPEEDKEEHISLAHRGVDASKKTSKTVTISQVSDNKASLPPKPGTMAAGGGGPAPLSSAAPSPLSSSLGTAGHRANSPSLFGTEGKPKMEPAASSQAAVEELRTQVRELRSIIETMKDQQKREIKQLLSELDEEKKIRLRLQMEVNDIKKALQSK

How the values were obtained:
Experiment in all cases: affinity purification with mass spectrometry; GST-fusion SH3 domain (about 10 μg on 40 μl Glutathione Sepharose 4B) incubated 4 h at 4°C with HeLa lysate pre-cleared on GST beads; 20 mM Tris pH 7.5, 150 mM NaCl, 5 mM EDTA, 5% glycerol, 0.5% Triton X-100 (washes 0.1%); SDS-PAGE, in-gel trypsin digestion, LC-MS/MS; hits also found with GST alone removed; only the target purified
[1] = target: GST-fusion SH3A domain of Ruk/CIN85 (UniProt Q96B97)
[2] = target: GST-fusion SH3B domain of Ruk/CIN85 (UniProt Q96B97)
[3] = target: GST-fusion SH3C domain of Ruk/CIN85 (UniProt Q96B97)

Binder | binding [1] | binding [2] | binding [3]
MKLP-1 (protein, UniProt Q02241 1-960) MKSARAKTPRKPTVKKGSQTNLKDPVGVYCRVRPLGFPDQECCIEVINNTTVQLHTPEGYRLNRNGDYKETQYSFKQVFGTHTTQKELFDVVANPLVNDLIHGKNGLLFTYGVTGSGKTHTMTGSPGEGGLLPRCLDMIFNSIGSFQAKRYVFKSNDRNSMDIQCEVDALLERQKREAMPNPKTSSSKRQVDPEFADMITVQEFCKAEEVDEDSVYGVFVSYIEIYNNYIYDLLEEVPFDPIKPKPPQSKLLREDKNHNMYVAGCTEVEVKSTEEAFEVFWRGQKKRRIANTHLNRESSRSHSVFNIKLVQAPLDADGDNVLQEKEQITISQLSLVDLAGSERTNRTRAEGNRLREAGNINQSLMTLRTCMDVLRENQMYGTNKMVPYRDSKLTHLFKNYFDGEGKVRMIVCVNPKAEDYEENLQVMRFAEVTQEVEVARPVDKAICGLTPGRRYRNQPRGPVGNEPLVTDVVLQSFPPLPSCEILDINDEQTLPRLIEALEKRHNLRQMMIDEFNKQSNAFKALLQEFDNAVLSKENHMQGKLNEKEKMISGQKLEIERLEKKNKTLEYKIEILEKTTTIYEEDKRNLQQELETQNQKLQRQFSDKRRLEARLQGMVTETTMKWEKECERRVAAKQLEMQNKLWVKDEKLKQLKAIVTEPKTEKPERPSRERDREKVTQRSVSPSPVPLSSNYIAQISNGQQLMSQPQLHRRSNSCSSISVASCISEWEQKIPTYNTPLKVTSIARRRQQEPGQSKTCIVSDRRRGMYWTEGREVVPTFRNEIEIEEDHCGRLLFQPDQNAPPIRLRHRRSRSAGDRWVDHKPASNMQTETVMQPHVPHAITVSVANEKALAKCEKYMLTHQELASDGEIETKLIKGDIYKTRGGGQSVQFTDIETLKQESPNGSRKRRSSTVAPAQPDGAESEWTDVETRCSVAVEMRAGSQLGPGYQHHAQPKRKKP | binds | binds | binds
Septin 6 (protein, UniProt Q14141 1-434) MAATDIARQVGEGCRTVPLAGHVGFDSLPDQLVNKSVSQGFCFNILCVGETGLGKSTLMDTLFNTKFEGEPATHTQPGVQLQSNTYDLQESNVRLKLTIVSTVGFGDQINKEDSYKPIVEFIDAQFEAYLQEELKIRRVLHTYHDSRIHVCLYFIAPTGHSLKSLDLVTMKKLDSKVNIIPIIAKADAISKSELTKFKIKITSELVSNGVQIYQFPTDDESVAEINGTMNAHLPFAVIGSTEELKIGNKMMRARQYPWGTVQVENEAHCDFVKLREMLIRVNMEDLREQTHTRHYELYRRCKLEEMGFKDTDPDSKPFSLQETYEAKRNEFLGELQKKEEEMRQMFVQRVKEKEAELKEAEKELHEKFDRLKKLHQDEKKKLEDKKKSLDDEVNAFKQRKTAAELLQSQGSQAGGSQTLKRDKEKKNNPWLCTE | binds | binds | binds
Septin 8 (protein, UniProt Q92599 1-483) MAATDLERFSNAEPEPRSLSLGGHVGFDSLPDQLVSKSVTQGFSFNILCVGETGIGKSTLMNTLFNTTFETEEASHHEACVRLRPQTYDLQESNVQLKLTIVDAVGFGDQINKDESYRPIVDYIDAQFENYLQEELKIRRSLFDYHDTRIHVCLYFITPTGHSLKSLDLVTMKKLDSKVNIIPIIAKADTISKSELHKFKIKIMGELVSNGVQIYQFPTDDEAVAEINAVMNAHLPFAVVGSTEEVKVGNKLVRARQYPWGVVQVENENHCDFVKLREMLIRVNMEDLREQTHSRHYELYRRCKLEEMGFQDSDGDSQPFSLQETYEAKRKEFLSELQRKEEEMRQMFVNKVKETELELKEKERELHEKFEHLKRVHQEEKRKVEEKRRELEEETNAFNRRKAAVEALQSQALHATSQQPLRKDKDKKNRSDIGAHQPGMSLSSSKVMMTKASVEPLNCSSWWPAIQCCSCLVRDATWREGFL | binds | binds | binds
Septin 10 (protein, UniProt Q9P0V9 1-454) MASSEVARHLLFQSHMATKTTCMSSQGSDDEQIKRENIRSLTMSGHVGFESLPDQLVNRSIQQGFCFNILCVGETGIGKSTLIDTLFNTNFEDYESSHFCPNVKLKAQTYELQESNVQLKLTIVNTVGFGDQINKEESYQPIVDYIDAQFEAYLQEELKIKRSLFTYHDSRIHVCLYFISPTGHSLKTLDLLTMKNLDSKVNIIPVIAKADTVSKTELQKFKIKLMSELVSNGVQIYQFPTDDDTIAKVNAAMNGQLPFAVVGSMDEVKVGNKMVKARQYPWGVVQVENENHCDFVKLREMLICTNMEDLREQTHTRHYELYRRCKLEEMGFTDVGPENKPVSVQETYEAKRHEFHGERQRKEEEMKQMFVQRVKEKEAILKEAERELQAKFEHLKRLHQEERMKLEEKRRLLEEEIIAFSKKKATSEIFHSQSFLATGSNLRKDKDRKNSNFL | binds | binds | binds
Septin 11 (protein, UniProt Q9NVA2 1-429) MAVAVGRPSNEELRNLSLSGHVGFDSLPDQLVNKSTSQGFCFNILCVGETGIGKSTLMDTLFNTKFESDPATHNEPGVRLKARSYELQESNVRLKLTIVDTVGFGDQINKDDSYKPIVEYIDAQFEAYLQEELKIKRSLFNYHDTRIHACLYFIAPTGHSLKSLDLVTMKKLDSKVNIIPIIAKADTIAKNELHKFKSKIMSELVSNGVQIYQFPTDEETVAEINATMSVHLPFAVVGSTEEVKIGNKMAKARQYPWGVVQVENENHCDFVKLREMLIRVNMEDLREQTHTRHYELYRRCKLEEMGFKDTDPDSKPFSLQETYEAKRNEFLGELQKKEEEMRQMFVMRVKEKEAELKEAEKELHEKFDLLKRTHQEEKKKVEDKKKELEEEVNNFQKKKAAAQLLQSQAQQSGAQQTKKDKDKKNASFT | binds | binds | binds

Next, values leading:

binding [1] | binding [2] | binding [3] | Binder
binds | binds | binds | Septin 7 (protein, UniProt Q16181 1-437) MSVSARSAAAEERSVNSSTMVAQQKNLEGYVGFANLPNQVYRKSVKRGFEFTLMVVGESGLGKSTLINSLFLTDLYSPEYPGPSHRIKKTVQVEQSKVLIKEGGVQLLLTIVDTPGFGDAVDNSNCWQPVIDYIDSKFEDYLNAESRVNRRQMPDNRVQCCLYFIAPSGHGLKPLDIEFMKRLHEKVNIIPLIAKADTLTPEECQQFKKQIMKEIQEHKIKIYEFPETDDEEENKLVKKIKDRLPLAVVGSNTIIEVNGKRVRGRQYPWGVAEVENGEHCDFTILRNMLIRTHMQDLKDVTNNVHYENYRSRKLAAVTYNGVDNNKNKGQLTKSPLAQMEEERREHVAKMKKMEMEMEQVFEMKVKEKVQKLKDSEAELQRRHEQMKKNLEAQHKELEEKRRQFEDEKANWEAQQRILEQQNSSRTLEKNKKKGKIF
binds | binds | binds | SH3D19 (protein, UniProt Q5HYK7 1-790) MNIMNTEQSQNSIVSRIKVFEGQTNIETSGLPKKPEITPRSLPPKPTVSSGKPSVAPKPAANRASGEWDSGTENRLKVTSKEGLTPYPPLQEAGSIPVTKPELPKKPNPGLIRSVNPEIPGRGPLAESSDSGKKVPTPAPRPLLLKKSVSSENPTYPSAPLKPVTVPPRLAGASQAKAYKSLGEGPPANPPVPVLQSKPLVDIDLISFDDDVLPTPSGNLAEESVGSEMVLDPFQLPAKTEPIKERAVQPAPTRKPTVIRIPAKPGKCLHEDPQSPPPLPAEKPIGNTFSTVSGKLSNVERTRNLESNHPGQTGGFVRVPPRLPPRPVNGKTIPTQQPPTKVPPERPPPPKLSATRRSNKKLPFNRSSSDMDLQKKQSNLATGLSKAKSQVFKNQDPVLPPRPKPGHPLYSKYMLSVPHGIANEDIVSQNPGELSCKRGDVLVMLKQTENNYLECQKGEDTGRVHLSQMKIITPLDEHLRSRPNDPSHAQKPVDSGAPHAVVLHDFPAEQVDDLNLTSGEIVYLLEKIDTDWYRGNCRNQIGIFPANYVKVIIDIPEGGNGKRECVSSHCVKGSRCVARFEYIGEQKDELSFSEGEIIILKEYVNEEWARGEVRGRTGIFPLNFVEPVEDYPTSGANVLSTKVPLKTKKEDSGSNSQVNSLPAEWCEALHSFTAETSDDLSFKRGDRIQILERLDSDWCRGRLQDREGIFPAVFVRPCPAEAKSMLAIVPKGRKAKALYDFRGENEDELSFKAGDIITELESVDDDWMSGELMGKSGIFPKNYIQFLQIS
binds | binds | binds | Septin 9 (protein, UniProt Q9UHD8 1-586) MKKSYSGGTRTSSGRLRRLGDSSGPALKRSFEVEEVETPNSTPPRRVQTPLLRATVASSTQKFQDLGVKNSEPSARHVDSLSQRSPKASLRRVELSGPKAAEPVSRRTELSIDISSKQVENAGAIGPSRFGLKRAEVLGHKTPEPAPRRTEITIVKPQESAHRRMEPPASKVPEVPTAPATDAAPKRVEIQMPKPAEAPTAPSPAQTLENSEPAPVSQLQSRLEPKPQPPVAEATPRSQEATEAAPSCVGDMADTPRDAGLKQAPASRNEKAPVDFGYVGIDSILEQMRRKAMKQGFEFNIMVVGQSGLGKSTLINTLFKSKISRKSVQPTSEERIPKTIEIKSITHDIEEKGVRMKLTVIDTPGFGDHINNENCWQPIMKFINDQYEKYLQEEVNINRKKRIPDTRVHCCLYFIPATGHSLRPLDIEFMKRLSKVVNIVPVIAKADTLTLEERVHFKQRITADLLSNGIDVYPQKEFDEDSEDRLVNEKFREMIPFAVVGSDHEYQVNGKRILGRKTKWGTIEVENTTHCEFAYLRDLLIRTHMQNIKDITSSIHFEAYRVKRLNEGSSAMANGMEEKEPEAPEM
binds | binds | binds | Vps37B (protein, UniProt Q9H9H4 1-285) MAGAGSEARFAGLSLVQLNELLEDEGQLTEMVQKMEETQNVQLNKEMTLASNRSLAEGNLLYQPQLDTLKARLTQKYQELQVLFEAYQIKKTKLDRQSSSASLETLLALLQAEGAKIEEDTENMAEKFLDGELPLDSFIDVYQSKRKLAHMRRVKIEKLQEMVLKGQRLPQALAPLPPRLPELAPTAPLPYPAPEASGPPAVAPRRIPPPPPPVPAGRLATPFTAAMSSGQAVPYPGLQCPPLPPRVGLPTQQGFSSQFVSPYPPPLPQRPPPRLPPHQPGFILQ
